Measurements as given in US20210139589A1 (APEXIGEN, published 2021).
Changes are numbered by the printed parent chain. No constants are given. Whether binding was seen depends on the method and setting. Some results given as binding are weak or reduced against the parent protein; the word gives no strength. For some of these results: Tags and fused reporters may be left off the sequences shown.

B1: humanized anti-VISTA antibody 2D12-HZD3 (antibody, human IgG1, kappa, V domains shown)
VH: EVQLVESGGGLVQPGGSLRLSCAASGIDLSSYAMGWVRQAPGKGLEWVGIISSSGSAFYASWAKGRFTISRDNSKNTLYLQMNSLRAEDTAVYYCARHYAGYTTPYYFNFWGQGTLVTVSS
VL: AIQMTQSPSSLSASVGDRVTITCQASENIYSNLAWYQQKPGKAPKVLIYAASDLASGVPSRFSGSGSGTDFTLTISSLQPEDFATYYCQQGFSSSNVDNAFGGGTKVEIKR
notes: kappa light chain
B2: humanized anti-VISTA antibody 14D8-HZD2 (antibody, human IgG1, kappa, V domains shown)
VH: EVQLVESGGGLVQPGGSLRLSCAASGFDLSSAYYMCWVRQAPGKGLEWVGCIATGSGSTYYASWAKGRFTISRDNSKNTLYLQMNSLRAEDTAVYYCARAPYYSYDGYDYALNLWGQGTLVTVSS
VL: DIQMTQSPSSVSASVGDRVTITCQASEDIVTYLAWYQQKPGKAPKLLIYAASTLASGVPSRFSGSGSGTDFTLTISSLQPEDFATYYCQQTYNYADTDNAFGGGTKVEIKR
notes: kappa light chain
B3: humanized anti-VISTA antibody 3A5-HZD (antibody, human IgG1, kappa, V domains shown)
VH: EVQLVESGGGLVQPGGSLRLSCAASGFSLSSENWICWVRQAPGKGLEWVGCICGANGGSAYHANWVNGRFTISRDNSKNTLYLQMNSLRAEDTAVYYCARAAGVSNAYYFDLWGQGTLVTVSS
VL: DIQMTQSPSSVSASVGDRVTITCQASQYIYINLAWYQQKPGKAPKLLIYDASDLASGVPSRFSGSGSGTDFTLTISSLQPEDFATYYCQCTYGGSTYGNAFGGGTKVEIKR
notes: kappa light chain
B4: humanized anti-VISTA antibody 41A11-HZD2 (antibody, human IgG1, kappa, V domains shown)
VH: EVQLLESGGGLVQPGGSLRLSCAASGFSFSSSYYMCWVRQAPGKGLEWVGCFYAGFSGGTYYASWAKGRFTISRDNSKNTLYLQMNSLRAEDTAVYYCAKGANTYGYTGYDYAGDYFTLWGQGTLVTVSS
VL: DIQMTQSPSTLSASVGDRVTITCQASQNIGSNLAWYQQKPGKAPKLLIYAASNLESGVPSRFSGSGSGTEFTLTISSLQPDDFATYYCQSAYYSSVDSYNTFGGGTKVEIKR
notes: kappa light chain
B5: rabbit anti-VISTA antibody clone 5B6 (antibody, V domains shown)
VH: QELVESGGGLVQAGESLKLSCKASGIDFSSYGISWVRQAPGKGLEWIAYIYPGNDITDYAHSVKGRFTISSDNAQNTVFLQMTSLTASDTATYFCARDAGYAGYGYPTGTYYFTLWGPGTLVTVSS
VL: ALVMTQTPSSVSAAVGGTVTINCQASQNIYNNLAWYQQKPGQRPKLLTYGASNLESGVPSRFKGSGSGTEYTLTISDLECDDAATYYCQSAYYSSSPDGAAFGGGTEVVVK
B6: rabbit anti-VISTA antibody clone 6B5 (antibody, V domains shown)
VH: B5 VH with E45G, H61N, Y104D
VL: B5 VL with A14P, N28S, T48I, K63E
B7: c3A5 (antibody, V domains shown)
VH: LEQSGGGAEGGLVKPGGSLDLCCKASGFSLSSENWICWVRQAPGKGLEWIGCICGANGGSAYHANWVNGRFTLSRDIDQSTDCLHLNSLTASDTAMYYCARAAGVSNAYYFDLWGPGTLVTVSS
VL: DVVMTQTPSSVSAAVGGTVTIKCQASQYIYINLAWYQQKPGQRPKLLIYDASDLASGVPSRFKGSRSGTEFTLTISDLECADAATYYCQCTYGGSTYGNAFGGGTEVVVK
B8: c14D8 (antibody, V domains shown)
VH: QEQLEESGGGLVKPEGSLTLTCKASGFDLSSAYYMCWVRQAPGKGLEWIGCIATGSGSTYYASWAKGRFTISKTSSTTVTLQATSLTAADTATLFCARAPYYSYDGYDYALNLWGPGTLVTVSS
VL: IKMTQTPSSVSAVVGGTVTINCQASEDIVTYLAWYQQKPGHSPNLLIYAASTLASGVPSRFKGSGSGTQFTLTISDVQCDDAATYYCQQTYNYADTDNAFGGGTEVVVK
B9: c14F1 (antibody, V domains shown)
VH: QSLEESGGDLVKPGASLKLTCTASGFSFSSSYYMCWVRQAPGKGLEWVACFYAGFSGSTYYASWAKGRFTISKTSSTTVTLQMTSLTAADTATYFCAKGASTYGYTGYDYAGDYFILWGPGTLVTVSS
VL: ALVMTQTPSSVSAAVGGTVTINCQASQNIYSNLAWYQQKPGQRPKLLIYAASNLASGVSSRFKGSGSGTEYTLTISDLECDDAATYYCQSAYYSSSADSYNAFGGGTEVVVK

molecular target: T1, soluble VISTA (UniProt Q9H7M9); assay: ELISA on soluble VISTA
T1 sequence (looked up): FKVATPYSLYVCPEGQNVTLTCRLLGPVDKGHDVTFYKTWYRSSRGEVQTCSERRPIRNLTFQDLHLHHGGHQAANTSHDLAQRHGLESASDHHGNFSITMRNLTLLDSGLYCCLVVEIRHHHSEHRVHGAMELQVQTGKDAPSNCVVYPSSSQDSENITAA

binding, binds:
B1
B2
B3
B4

molecular target: T2, VISTA (antigen of the hybridoma screening ELISA) (UniProt Q9H7M9); assay: ELISA binding assay, hybridoma screen
T2 sequence (looked up): T1 sequence (looked up)

binding, binds:
B5
B6

molecular target: T3, VISTA-his protein (UniProt Q9H7M9); assay: competition ELISA on coated VISTA-his; pre-incubation with the chimeric antibody, then biotin-labeled VSTB112, detected with streptavidin-HRP
T3 sequence (looked up): T1 sequence (looked up)

binding, binds:
B7
B8
B9

molecular target: T1, soluble VISTA; assay: ELISA, binding to soluble VISTA

binding, binds:
B1
B2
B3
B4
